Some of the results follow.
How the values were obtained:
Assay in all cases: glycan array binding signal (z-score within array); higher = stronger binding
Conditions in all cases: glycan notation: IUPAC condensed, linker removed
[1] = target: Fuc(a1-2)[Gal(a1-3)]Gal(b1-4)GlcNAc(b1-2)Man(a1-3)[Fuc(a1-2)[Gal(a1-3)]Gal(b1-4)GlcNAc(b1-2)Man(a1-6)]Man(b1-4)GlcNAc(b1-4)GlcNAc
Method in brief: (§1)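 Glycan array binding is given as a within-array Z-score, which can be read as non-binding when negative. The arrays, 3228 of them, came from the Consortium for Functional Glycomics database and were retained only where the protein sequence was available. Z-scores were averaged across arrays of the same protein sequence at different concentrations or buffers and across linkers.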

[2] = target: Fuc(a1-2)[Gal(a1-3)]Gal(b1-4)GlcNAc(b1-2)Man(a1-3)[Fuc(a1-2)[Gal(a1-3)]Gal(b1-4)GlcNAc(b1-2)Man(a1-6)]Man(b1-4)GlcNAc(b1-4)[Fuc(a1-6)]GlcNAc
Method in brief: as §1

[3] = target: Fuc(a1-2)[Gal(a1-3)]Gal(b1-4)GlcNAc(b1-3)GalNAc
Method in brief: as §1

[4] = target: Fuc(a1-2)[Gal(a1-3)]Gal(b1-4)GlcNAc(b1-6)GalNAc
Method in brief: as §1

[5] = target: Fuc(a1-2)[Gal(a1-3)]Gal(b1-4)[Fuc(a1-3)]Glc
Method in brief: as §1

[6] = target: Fuc(a1-2)[Gal(a1-3)]Gal(b1-4)[Fuc(a1-3)]GlcNAc
Method in brief: as §1

[7] = target: Fuc(a1-2)[Gal(a1-3)]Gal(b1-4)[Fuc(a1-3)]GlcNAc(b1-3)GalNAc
Method in brief: as §1

[8] = target: Fuc(a1-2)[Gal(a1-4)]Gal(b1-4)GlcNAc
Method in brief: as §1

[9] = target: Fuc(a1-2)[GalNAc(a1-3)]Gal
Method in brief: as §1

[10] = target: Fuc(a1-2)[GalNAc(a1-3)]Gal(b1-3)GalNAc(a1-3)[Fuc(a1-2)]Gal(b1-4)GlcNAc
Method in brief: as §1

[11] = target: Fuc(a1-2)[GalNAc(a1-3)]Gal(b1-3)GalNAc(b1-3)Gal(a1-4)Gal(b1-4)Glc
Method in brief: as §1

[12] = target: Fuc(a1-2)[GalNAc(a1-3)]Gal(b1-3)GlcNAc
Method in brief: as §1

[13] = target: Fuc(a1-2)[GalNAc(a1-3)]Gal(b1-3)GlcNAc(b1-2)Man(a1-3)[Fuc(a1-2)[GalNAc(a1-3)]Gal(b1-3)GlcNAc(b1-2)Man(a1-6)]Man(b1-4)GlcNAc(b1-4)GlcNAc
Method in brief: as §1

[14] = target: Fuc(a1-2)[GalNAc(a1-3)]Gal(b1-3)GlcNAc(b1-2)Man(a1-3)[Fuc(a1-2)[GalNAc(a1-3)]Gal(b1-3)GlcNAc(b1-2)Man(a1-6)]Man(b1-4)GlcNAc(b1-4)[Fuc(a1-6)]GlcNAc
Method in brief: as §1

[15] = target: Fuc(a1-2)[GalNAc(a1-3)]Gal(b1-3)GlcNAc(b1-3)GalNAc
Method in brief: as §1

[16] = target: Fuc(a1-2)[GalNAc(a1-3)]Gal(b1-3)GlcNAc(b1-6)GalNAc
Method in brief: as §1

[17] = target: Fuc(a1-2)[GalNAc(a1-3)]Gal(b1-4)Glc
Method in brief: as §1

[18] = target: Fuc(a1-2)[GalNAc(a1-3)]Gal(b1-4)GlcNAc
Method in brief: as §1

[19] = target: Fuc(a1-2)[GalNAc(a1-3)]Gal(b1-4)GlcNAc(b1-2)Man
Method in brief: as §1

[20] = target: Fuc(a1-2)[GalNAc(a1-3)]Gal(b1-4)GlcNAc(b1-2)Man(a1-3)[Fuc(a1-2)[GalNAc(a1-3)]Gal(b1-4)GlcNAc(b1-2)Man(a1-6)]Man(b1-4)GlcNAc(b1-4)GlcNAc
Method in brief: as §1

[21] = target: Fuc(a1-2)[GalNAc(a1-3)]Gal(b1-4)GlcNAc(b1-2)Man(a1-3)[Fuc(a1-2)[GalNAc(a1-3)]Gal(b1-4)GlcNAc(b1-2)Man(a1-6)]Man(b1-4)GlcNAc(b1-4)[Fuc(a1-6)]GlcNAc
Method in brief: as §1

[22] = target: Fuc(a1-2)[GalNAc(a1-3)]Gal(b1-4)GlcNAc(b1-3)Gal(b1-4)GlcNAc
Method in brief: as §1

[23] = target: Fuc(a1-2)[GalNAc(a1-3)]Gal(b1-4)GlcNAc(b1-3)Gal(b1-4)GlcNAc(b1-3)Gal(b1-4)GlcNAc
Method in brief: as §1

[24] = target: Fuc(a1-2)[GalNAc(a1-3)]Gal(b1-4)GlcNAc(b1-3)GalNAc
Method in brief: as §1

[25] = target: Fuc(a1-2)[GalNAc(a1-3)]Gal(b1-4)GlcNAc(b1-3)[Fuc(a1-2)[GalNAc(a1-3)]Gal(b1-4)GlcNAc(b1-6)]GalNAc
Method in brief: as §1

[26] = target: Fuc(a1-2)[GalNAc(a1-3)]Gal(b1-4)GlcNAc(b1-6)GalNAc
Method in brief: as §1

[27] = target: Fuc(a1-2)[GalNAc(a1-3)]Gal(b1-4)[Fuc(a1-3)]GlcNAc
Method in brief: as §1

[28] = target: Fuc(a1-2)[GalNAc(a1-3)]Gal(b1-4)[Fuc(a1-3)]GlcNAc(b1-3)GalNAc
Method in brief: as §1

[29] = target: Fuc(a1-2)[GalNAc(a1-4)]Gal(b1-4)GlcNAc
Method in brief: as §1

[30] = target: Fuc(a1-2)[GalNAc(b1-3)]Gal
Method in brief: as §1

B1: CD4 (Rattus norvegicus), P05540 (protein)
chain: MCRGFSFRHLLPLLLLQLSKLLVVTQGSTSITAYKSEGESAEFSFPLNLGEESLQGELRWKAEKAPSSQSWITFSLKNQKVSVQKSTSNPKFQLSETLPLTLQIPQVSLQFAGSGNLTLTLDRGILYQEVNLVVMKVTQPDSNTLTCEVMGPTSPKMRLILKQENQEARVSRQEKVIQVQAPEAGVWQCLLSEGEEVKMDSKIQVLSKGLNSGGGSGGGTGGGDLAPQMLRELQETNAALQDVRELLRQQVKEITFLKNTVMECDACGLDRNLPPLAPLGPHPETLVKVKDAEDQLGARVGYIELDLNSGKILESFRPEERFPMMSTFKVLLCGAVLSRIDAGQEQLGRRIHYSQNDLVEYSPVTEKHLTDGMTVRELCSAAITMSDNTAANLLLTTIGGPKELTAFLHNMGDHVTRLDRWEPELNEAIPNDERDTTMPVAMATTLRKLLTGELLTLASRQQLIDWMEADKVAGPLLRSALPAGWFIADKSGAGERGSRGIIAALGPDGKPSRIVVIYTTGSQATMDERNRQIAEIGASLIKHW
glycan array binding signal (z-score) [1]: 1.57
glycan array binding signal (z-score) [2]: 1.22
glycan array binding signal (z-score) [3]: -0.617
glycan array binding signal (z-score) [4]: 0.27
glycan array binding signal (z-score) [5]: 0.448
glycan array binding signal (z-score) [6]: 2.36
glycan array binding signal (z-score) [7]: -0.228
glycan array binding signal (z-score) [8]: 1.9
glycan array binding signal (z-score) [9]: -0.738
glycan array binding signal (z-score) [10]: -0.508
glycan array binding signal (z-score) [11]: -1.25
glycan array binding signal (z-score) [12]: -0.217
glycan array binding signal (z-score) [13]: 1.82
glycan array binding signal (z-score) [14]: -0.564
glycan array binding signal (z-score) [15]: 2.41
glycan array binding signal (z-score) [16]: 0.082
glycan array binding signal (z-score) [17]: 0.566
glycan array binding signal (z-score) [18]: -0.98
glycan array binding signal (z-score) [19]: -0.121
glycan array binding signal (z-score) [20]: 0.34
glycan array binding signal (z-score) [21]: -0.059
glycan array binding signal (z-score) [22]: -0.594
glycan array binding signal (z-score) [23]: 3.72
glycan array binding signal (z-score) [24]: -0.665
glycan array binding signal (z-score) [25]: -0.902
glycan array binding signal (z-score) [26]: 0.037
glycan array binding signal (z-score) [27]: 2.67
glycan array binding signal (z-score) [28]: 1
glycan array binding signal (z-score) [29]: -1.04
glycan array binding signal (z-score) [30]: 1.89

From the supplement of paper PMC8728848
